Results published in the supplement of paper PMC12823440, “Inhibitors supercharge kinase turnover through native proteolytic circuits” (Nature, 2025).
The other results are listed elsewhere or left out. The calls rarely recur for the same compound in another form.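 In K562 cells expressing nanoluciferase-fused kinases, luminescence was recorded at 4 h intervals between 2 and 18 h, normalized as percent of control with DMSO at 100% and a positive control at 0%. A significant (2 sigma) signal drop marks a time point as decreased. The authors' rule for a hit is not shown and takes in more than the number of time points.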

By UniProt entry, the sequences of proteins in these tests, tags left out. Where a name states a change or a piece, a line headed by the entry shows the natural chain unless it says otherwise.
UniProt P48729: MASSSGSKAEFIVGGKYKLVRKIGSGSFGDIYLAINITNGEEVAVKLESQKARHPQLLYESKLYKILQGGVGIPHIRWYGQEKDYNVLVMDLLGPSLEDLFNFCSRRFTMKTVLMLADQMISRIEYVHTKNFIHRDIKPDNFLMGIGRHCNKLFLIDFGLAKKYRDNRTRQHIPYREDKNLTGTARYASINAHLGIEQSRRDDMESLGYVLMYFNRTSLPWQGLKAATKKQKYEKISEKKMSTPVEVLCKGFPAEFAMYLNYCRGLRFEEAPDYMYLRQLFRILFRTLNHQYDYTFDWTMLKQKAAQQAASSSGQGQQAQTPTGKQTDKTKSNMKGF
UniProt Q08345: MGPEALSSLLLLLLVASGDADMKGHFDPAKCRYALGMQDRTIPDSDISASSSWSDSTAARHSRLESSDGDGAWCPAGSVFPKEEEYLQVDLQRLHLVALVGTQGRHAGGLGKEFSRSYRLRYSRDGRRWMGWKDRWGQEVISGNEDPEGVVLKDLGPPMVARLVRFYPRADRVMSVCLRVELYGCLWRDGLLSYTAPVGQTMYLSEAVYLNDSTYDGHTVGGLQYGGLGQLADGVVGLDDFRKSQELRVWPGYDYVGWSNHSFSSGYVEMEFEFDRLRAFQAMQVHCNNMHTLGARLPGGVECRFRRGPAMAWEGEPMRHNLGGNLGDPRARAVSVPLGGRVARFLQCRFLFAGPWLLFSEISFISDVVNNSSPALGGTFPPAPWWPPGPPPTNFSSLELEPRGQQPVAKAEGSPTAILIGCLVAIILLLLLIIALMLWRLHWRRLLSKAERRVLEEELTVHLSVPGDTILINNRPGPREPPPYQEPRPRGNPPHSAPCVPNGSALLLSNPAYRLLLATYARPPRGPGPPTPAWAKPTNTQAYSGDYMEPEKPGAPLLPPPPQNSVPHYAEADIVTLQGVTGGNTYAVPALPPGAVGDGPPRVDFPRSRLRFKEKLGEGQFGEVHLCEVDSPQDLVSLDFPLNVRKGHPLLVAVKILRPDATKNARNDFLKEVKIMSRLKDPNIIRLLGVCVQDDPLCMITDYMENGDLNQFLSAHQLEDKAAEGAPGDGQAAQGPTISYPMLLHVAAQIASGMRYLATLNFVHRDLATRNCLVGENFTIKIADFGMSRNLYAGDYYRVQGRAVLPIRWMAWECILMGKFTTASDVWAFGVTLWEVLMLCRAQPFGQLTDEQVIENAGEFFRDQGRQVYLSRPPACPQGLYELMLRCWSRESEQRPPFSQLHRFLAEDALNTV
UniProt Q92630: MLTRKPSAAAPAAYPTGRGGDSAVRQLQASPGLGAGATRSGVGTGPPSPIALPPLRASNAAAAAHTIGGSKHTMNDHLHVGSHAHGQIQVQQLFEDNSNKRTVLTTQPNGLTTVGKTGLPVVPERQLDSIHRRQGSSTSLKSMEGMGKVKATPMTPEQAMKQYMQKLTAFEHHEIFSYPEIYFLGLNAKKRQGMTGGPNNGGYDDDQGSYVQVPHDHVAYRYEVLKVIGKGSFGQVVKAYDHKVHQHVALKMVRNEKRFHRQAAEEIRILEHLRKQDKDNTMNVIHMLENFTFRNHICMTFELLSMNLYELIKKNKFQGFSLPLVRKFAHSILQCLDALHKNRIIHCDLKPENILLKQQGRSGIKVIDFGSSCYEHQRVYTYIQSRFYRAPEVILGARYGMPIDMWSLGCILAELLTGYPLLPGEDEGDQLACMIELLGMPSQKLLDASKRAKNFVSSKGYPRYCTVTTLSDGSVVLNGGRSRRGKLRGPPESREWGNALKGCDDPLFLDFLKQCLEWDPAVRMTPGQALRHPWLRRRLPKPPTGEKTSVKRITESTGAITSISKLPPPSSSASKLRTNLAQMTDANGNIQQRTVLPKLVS
UniProt P29317, whole entry: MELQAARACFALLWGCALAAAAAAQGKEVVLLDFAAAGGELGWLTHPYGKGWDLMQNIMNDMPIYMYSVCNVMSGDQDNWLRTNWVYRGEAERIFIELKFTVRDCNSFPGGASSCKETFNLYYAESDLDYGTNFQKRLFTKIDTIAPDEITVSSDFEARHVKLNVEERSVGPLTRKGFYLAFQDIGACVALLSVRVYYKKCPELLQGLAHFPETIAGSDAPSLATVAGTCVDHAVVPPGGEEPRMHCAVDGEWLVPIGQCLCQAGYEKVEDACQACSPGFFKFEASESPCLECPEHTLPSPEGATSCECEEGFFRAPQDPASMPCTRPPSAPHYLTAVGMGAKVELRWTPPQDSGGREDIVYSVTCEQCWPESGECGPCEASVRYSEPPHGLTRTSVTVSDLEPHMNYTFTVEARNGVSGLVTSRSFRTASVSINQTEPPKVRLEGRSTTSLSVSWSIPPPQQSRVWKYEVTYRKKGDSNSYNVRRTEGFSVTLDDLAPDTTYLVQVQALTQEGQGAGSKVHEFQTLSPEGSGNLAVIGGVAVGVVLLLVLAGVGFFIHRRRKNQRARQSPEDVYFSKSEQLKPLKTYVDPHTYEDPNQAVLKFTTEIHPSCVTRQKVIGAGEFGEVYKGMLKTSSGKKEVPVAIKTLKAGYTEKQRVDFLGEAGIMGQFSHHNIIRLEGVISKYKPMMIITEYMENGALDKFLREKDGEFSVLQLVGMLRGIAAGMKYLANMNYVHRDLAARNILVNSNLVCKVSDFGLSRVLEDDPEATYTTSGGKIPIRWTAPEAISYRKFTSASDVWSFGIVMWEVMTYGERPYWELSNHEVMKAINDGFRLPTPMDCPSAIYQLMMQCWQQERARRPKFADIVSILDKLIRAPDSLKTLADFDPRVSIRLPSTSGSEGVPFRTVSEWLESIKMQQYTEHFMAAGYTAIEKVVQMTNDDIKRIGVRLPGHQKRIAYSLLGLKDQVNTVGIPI
UniProt P21860, whole entry: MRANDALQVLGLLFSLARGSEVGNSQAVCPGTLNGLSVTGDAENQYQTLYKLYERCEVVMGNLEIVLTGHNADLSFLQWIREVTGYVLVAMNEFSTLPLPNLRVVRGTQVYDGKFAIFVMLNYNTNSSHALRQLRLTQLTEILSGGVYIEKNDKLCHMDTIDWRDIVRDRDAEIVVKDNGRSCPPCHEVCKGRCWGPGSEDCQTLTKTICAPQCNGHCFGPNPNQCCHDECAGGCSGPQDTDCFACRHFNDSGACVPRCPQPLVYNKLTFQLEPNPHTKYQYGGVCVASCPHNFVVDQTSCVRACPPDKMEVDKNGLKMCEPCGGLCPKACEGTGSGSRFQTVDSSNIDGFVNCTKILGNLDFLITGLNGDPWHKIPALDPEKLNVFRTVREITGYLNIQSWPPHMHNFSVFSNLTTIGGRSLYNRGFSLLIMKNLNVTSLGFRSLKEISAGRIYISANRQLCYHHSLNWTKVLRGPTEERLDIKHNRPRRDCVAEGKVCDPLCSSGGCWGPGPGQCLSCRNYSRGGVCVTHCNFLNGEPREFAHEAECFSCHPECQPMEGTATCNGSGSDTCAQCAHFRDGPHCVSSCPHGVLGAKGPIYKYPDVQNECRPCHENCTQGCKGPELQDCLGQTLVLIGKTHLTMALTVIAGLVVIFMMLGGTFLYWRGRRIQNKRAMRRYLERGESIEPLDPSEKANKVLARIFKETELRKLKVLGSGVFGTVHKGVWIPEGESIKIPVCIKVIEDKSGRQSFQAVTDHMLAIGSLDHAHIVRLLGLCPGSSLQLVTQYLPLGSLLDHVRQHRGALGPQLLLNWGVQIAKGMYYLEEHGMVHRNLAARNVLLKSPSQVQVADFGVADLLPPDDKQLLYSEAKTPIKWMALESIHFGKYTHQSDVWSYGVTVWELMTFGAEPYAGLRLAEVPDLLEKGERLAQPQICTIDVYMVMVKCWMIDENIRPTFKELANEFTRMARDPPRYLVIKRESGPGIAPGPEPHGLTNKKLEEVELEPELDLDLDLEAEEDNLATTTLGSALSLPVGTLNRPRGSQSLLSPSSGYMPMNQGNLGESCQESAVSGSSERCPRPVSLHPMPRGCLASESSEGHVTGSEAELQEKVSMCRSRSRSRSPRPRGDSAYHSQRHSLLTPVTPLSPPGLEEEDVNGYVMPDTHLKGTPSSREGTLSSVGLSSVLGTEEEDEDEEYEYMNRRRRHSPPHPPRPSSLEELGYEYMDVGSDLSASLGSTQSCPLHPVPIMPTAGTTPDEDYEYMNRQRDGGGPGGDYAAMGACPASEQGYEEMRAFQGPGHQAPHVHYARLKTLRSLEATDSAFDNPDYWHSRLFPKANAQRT
UniProt Q15303, whole entry R711C: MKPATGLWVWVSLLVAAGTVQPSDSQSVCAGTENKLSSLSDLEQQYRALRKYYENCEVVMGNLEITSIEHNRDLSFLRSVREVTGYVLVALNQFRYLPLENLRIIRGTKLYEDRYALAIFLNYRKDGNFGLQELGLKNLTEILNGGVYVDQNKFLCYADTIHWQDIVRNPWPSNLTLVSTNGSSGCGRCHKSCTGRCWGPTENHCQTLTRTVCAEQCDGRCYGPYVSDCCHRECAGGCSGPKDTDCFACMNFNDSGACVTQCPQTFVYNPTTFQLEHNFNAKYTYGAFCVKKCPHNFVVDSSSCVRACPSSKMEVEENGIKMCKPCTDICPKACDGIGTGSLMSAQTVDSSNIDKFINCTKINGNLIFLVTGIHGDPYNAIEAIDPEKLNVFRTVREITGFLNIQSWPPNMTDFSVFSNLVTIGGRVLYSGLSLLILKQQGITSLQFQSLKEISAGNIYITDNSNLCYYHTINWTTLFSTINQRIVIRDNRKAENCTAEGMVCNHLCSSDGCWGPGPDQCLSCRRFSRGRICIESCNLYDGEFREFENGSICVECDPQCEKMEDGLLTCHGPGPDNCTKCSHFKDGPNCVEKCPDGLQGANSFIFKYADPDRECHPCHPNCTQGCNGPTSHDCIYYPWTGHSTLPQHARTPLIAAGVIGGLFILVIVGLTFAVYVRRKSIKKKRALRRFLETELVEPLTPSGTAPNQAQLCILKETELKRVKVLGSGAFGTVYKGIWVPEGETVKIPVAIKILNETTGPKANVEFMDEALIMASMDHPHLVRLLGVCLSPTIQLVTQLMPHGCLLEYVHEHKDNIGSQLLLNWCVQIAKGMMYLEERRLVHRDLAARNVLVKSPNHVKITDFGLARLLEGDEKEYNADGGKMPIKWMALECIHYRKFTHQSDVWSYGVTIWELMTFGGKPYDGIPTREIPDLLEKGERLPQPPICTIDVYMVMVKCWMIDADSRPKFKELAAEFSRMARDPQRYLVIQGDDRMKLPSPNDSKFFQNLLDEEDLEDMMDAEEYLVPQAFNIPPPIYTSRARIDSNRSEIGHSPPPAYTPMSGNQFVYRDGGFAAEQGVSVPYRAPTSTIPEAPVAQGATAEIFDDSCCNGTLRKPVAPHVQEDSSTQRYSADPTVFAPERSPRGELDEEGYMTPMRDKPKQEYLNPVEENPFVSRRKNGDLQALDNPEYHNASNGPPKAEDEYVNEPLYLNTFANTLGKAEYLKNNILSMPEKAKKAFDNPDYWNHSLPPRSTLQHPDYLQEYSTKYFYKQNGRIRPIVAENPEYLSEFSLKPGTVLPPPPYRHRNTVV
UniProt P21802, whole entry, looked up: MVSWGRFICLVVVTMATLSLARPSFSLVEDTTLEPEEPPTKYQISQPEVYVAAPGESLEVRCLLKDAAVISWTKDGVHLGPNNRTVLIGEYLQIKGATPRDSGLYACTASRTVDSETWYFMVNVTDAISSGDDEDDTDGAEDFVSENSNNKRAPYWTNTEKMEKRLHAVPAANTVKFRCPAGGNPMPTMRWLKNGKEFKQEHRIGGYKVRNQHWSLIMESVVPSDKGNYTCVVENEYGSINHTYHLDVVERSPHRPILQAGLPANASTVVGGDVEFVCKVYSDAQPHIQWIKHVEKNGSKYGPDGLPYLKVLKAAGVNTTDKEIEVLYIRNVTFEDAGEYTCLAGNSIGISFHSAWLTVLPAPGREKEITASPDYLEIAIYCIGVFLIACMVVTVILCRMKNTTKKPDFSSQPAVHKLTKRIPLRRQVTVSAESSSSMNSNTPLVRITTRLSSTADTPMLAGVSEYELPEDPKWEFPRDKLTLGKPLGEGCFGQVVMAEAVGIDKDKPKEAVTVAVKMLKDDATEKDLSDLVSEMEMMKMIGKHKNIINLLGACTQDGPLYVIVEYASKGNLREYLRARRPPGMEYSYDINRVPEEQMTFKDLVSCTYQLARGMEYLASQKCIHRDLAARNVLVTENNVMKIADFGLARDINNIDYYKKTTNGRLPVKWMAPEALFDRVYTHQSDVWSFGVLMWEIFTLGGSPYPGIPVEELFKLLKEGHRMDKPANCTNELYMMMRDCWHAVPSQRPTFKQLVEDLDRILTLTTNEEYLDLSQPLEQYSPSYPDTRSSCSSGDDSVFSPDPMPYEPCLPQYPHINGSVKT

Tests used:
Test in all cases: number of time points (of 5) at which kinase-Nluc abundance scored as decreased, DMSO-normalised (count); higher = more persistent destabilization
Settings in all cases: K562; 2-18 h
CSNK1A1 = CSNK1A1 (UniProt P48729)
CSNK1D = CSNK1D (UniProt P48730)
DDR1 = DDR1 (UniProt Q08345)
DYRK1B = DYRK1B (UniProt Q9Y463)
DYRK2 = DYRK2 (UniProt Q92630)
EGFR = EGFR (UniProt P00533)
EGFR_G719S = EGFR_G719S (UniProt P00533)
EGFR_G719S_T790M = EGFR_G719S_T790M (UniProt P00533)
EGFR_L718V = EGFR_L718V (UniProt P00533)
EGFR_L858R = EGFR_L858R (UniProt P00533)
EGFR_L861Q = EGFR_L861Q (UniProt P00533)
EGFR_T790M = EGFR_T790M (UniProt P00533)
EPHA2 = EPHA2 (UniProt P29317)
ERBB3 = ERBB3 (UniProt P21860)
[1] = target: ERBB4_R711C (clone: ERBB4_mut) (UniProt Q15303)
ERN1 = ERN1 (UniProt O75460)
FGFR1 = FGFR1 (UniProt P11362)
FGFR2 = FGFR2 (UniProt P21802)
FGFR3 = FGFR3 (UniProt P22607)
FGR = FGR (UniProt P09769)

Row | SMILES | number of time points (CSNK1A1) | number of time points (CSNK1D) | number of time points (DDR1) | number of time points (DYRK1B) | number of time points (DYRK2) | number of time points (EGFR) | number of time points (EGFR_G719S) | number of time points (EGFR_G719S_T790M) | number of time points (EGFR_L718V) | number of time points (EGFR_L858R) | number of time points (EGFR_L861Q) | number of time points (EGFR_T790M) | number of time points (EPHA2) | number of time points (ERBB3) | number of time points [1] | number of time points (ERN1) | number of time points (FGFR1) | number of time points (FGFR2) | number of time points (FGFR3) | number of time points (FGR)
1 | C[C@@H]1CN(c2cc(-c3n[nH]c4ccc(OC5(C)CC5)cc34)ncn2)C[C@H](C)O1 (10 µM) | 0 | 0 | 1 | 0 | 0 | 0 | 0 | 0 | 0 | 0 | 0 | 0 | 0 | 0 | 0 | 0 | 0 | 0 | 0 | 0
2 | O=C(NC1CCOCC1)c1ccc(-c2cc(-c3c[nH]nc3-c3ccccn3)ccn2)cc1 (10 µM) | 0 | 0 | 0 | 0 | 0 | 0 | 0 | 0 | 0 | 0 | 0 | 0 | 0 | 0 | 0 | 0 | 0 | 0 | 0 | 0
3 | Cc1cc(-c2ccnc(Nc3cnn(C)c3)n2)ccc1CNC(=O)N1CC(OC(C)C)C1 (10 µM) | 0 | 0 | 0 | 0 | 0 | 0 | 0 | 0 | 0 | 0 | 0 | 0 | 0 | 0 | 0 | 0 | 0 | 0 | 0 | 0
4 | Nc1ncnc2c1c(-c1ccc(Oc3ccccc3)cc1)nn2C1CCN(CCOCCOCCOc2ccc3c(c2)CN(C2CCC(=O)NC2=O)C3=O)CC1 (stereo not given) (2.5 µM) | 0 | 0 | 0 | 0 | 0 | 0 | 0 | 0 | 0 | 0 | 0 | 0 | 0 | 0 | 0 | 0 | 0 | 0 | 0 | 0
5 | COc1cc(N2CCOCC2)ccc1Nc1ncc(Cl)c(Nc2ccccc2NS(C)(=O)=O)n1 (2.5 µM) | 0 | 0 | 0 | 0 | 0 | 0 | 0 | 0 | 0 | 0 | 0 | 0 | 0 | 0 | 0 | 0 | 0 | 0 | 0 | 0
6 | Cc1ccc(Oc2nc3cc(-c4ccc(-c5ccccc5)cc4)c(Cl)cc3[nH]2)cc1C(=O)O (10 µM) | 0 | 0 | 0 | 0 | 0 | 0 | 0 | 0 | 0 | 0 | 0 | 0 | 0 | 0 | 0 | 0 | 0 | 0 | 0 | 0
7 | O=C1/C(=C\c2ccc(Cl)cc2)C=C(c2ccccc2)N1c1ccc(O)cc1 (2.5 µM) | 0 | 0 | 0 | 0 | 0 | 0 | 0 | 0 | 0 | 0 | 0 | 0 | 0 | 0 | 0 | 0 | 0 | 0 | 0 | 0
8 | Cc1cnc(-c2ccc(-c3ccc(NC(=O)Nc4cccc(C(F)(F)F)c4)cc3F)c3c2C(=O)NC3)[nH]1 (10 µM) | 3 | 0 | 0 | 0 | 0 | 0 | 3 | 0 | 0 | 0 | 3 | 0 | 0 | 0 | 1 | 0 | 0 | 2 | 1 | 0
9 | Cn1cnc([N+](=O)[O-])c1C[N+](C)(C)C/C=C/C(=O)Nc1cc2c(Nc3ccc(Cl)c(Br)c3)ncnc2cn1 [Tarloxotinib (bromide)] (10 µM) | 0 | 0 | 0 | 0 | 0 | 0 | 0 | 0 | 0 | 0 | 0 | 0 | 0 | 0 | 0 | 0 | 0 | 0 | 0 | 0
10 | Cc1cc(C)nc(NS(=O)(=O)c2ccc(NC(=S)NC(=O)COc3ccc(Br)cc3Cl)cc2)n1 (2.5 µM) | 0 | 0 | 0 | 0 | 0 | 0 | 0 | 0 | 0 | 0 | 0 | 0 | 0 | 0 | 0 | 0 | 0 | 0 | 0 | 0
11 | O=C1NC(=Nc2c(Cl)cccc2Cl)S/C1=C\c1ccc2nccnc2c1 (2.5 µM) | 0 | 0 | 0 | 0 | 0 | 0 | 0 | 0 | 0 | 0 | 0 | 0 | 0 | 0 | 0 | 0 | 2 | 4 | 0 | 0
12 | CC(C)c1cc(/C=C(\C#N)C(=O)NCCCc2ccccc2)cc(C(C)C)c1O (10 µM) | 0 | 0 | 0 | 0 | 0 | 0 | 0 | 2 | 1 | 0 | 0 | 0 | 0 | 0 | 0 | 0 | 0 | 0 | 0 | 0
13 | N#Cc1ccnc(Nc2cc(C3CCN(C4COC4)CC3)cc(N3CCC(F)(F)C3)n2)c1 (2.5 µM) | 0 | 0 | 0 | 0 | 0 | 0 | 0 | 0 | 0 | 0 | 0 | 0 | 0 | 0 | 0 | 0 | 0 | 0 | 0 | 0
14 | C[C@H](NC(=O)[C@H]1NCC[C@@H]1O)c1ccc(-c2noc(CCC3CCCC3)n2)cc1 (10 µM) | 0 | 0 | 0 | 0 | 0 | 0 | 0 | 0 | 0 | 0 | 0 | 0 | 0 | 0 | 0 | 0 | 0 | 0 | 0 | 0
15 | O=C1O[C@H]([C@@H](O)CO)C(O)=C1OP(=O)(O)O [2-Phospho-L-ascorbic acid (trisodium)] (10 µM) | 0 | 0 | 0 | 0 | 0 | 0 | 0 | 0 | 0 | 0 | 0 | 0 | 0 | 0 | 0 | 0 | 2 | 0 | 0 | 0
16 | C=CC(=O)N1C[C@H](COc2nc(Nc3cnn(C)c3)nc3[nH]cc(Cl)c23)[C@@H](OC)C1 (2.5 µM) | 0 | 0 | 0 | 0 | 0 | 0 | 0 | 0 | 0 | 0 | 0 | 0 | 0 | 0 | 0 | 0 | 0 | 0 | 0 | 0
17 | Oc1ccc(/C=C/c2cc(O)cc(O)c2)cc1 [Resveratrol] (10 µM) | 0 | 0 | 0 | 0 | 0 | 0 | 0 | 0 | 0 | 0 | 0 | 0 | 0 | 0 | 0 | 0 | 0 | 0 | 0 | 0
18 | O=C(O)c1cccc(CN2C(=O)/C(=C(\c3ccccc3)c3ccc(Cl)cc3)c3ccccc32)c1 (2.5 µM) | 0 | 0 | 0 | 0 | 0 | 0 | 0 | 0 | 0 | 0 | 0 | 0 | 0 | 0 | 0 | 0 | 0 | 0 | 0 | 0
19 | COc1ccc(-c2c(C)nn3c(NCCN4CCOCC4)cc(C)nc23)cc1OC (10 µM) | 0 | 0 | 0 | 0 | 0 | 0 | 0 | 0 | 0 | 0 | 0 | 0 | 0 | 0 | 0 | 0 | 0 | 0 | 0 | 0
20 | C=CC(=O)Nc1cccc(CNc2nc(Nc3ccc(N4CCN(C)CC4)cc3OC)ncc2Cl)c1 (10 µM) | 0 | 0 | 0 | 0 | 0 | 0 | 0 | 0 | 0 | 0 | 0 | 0 | 0 | 0 | 0 | 0 | 0 | 0 | 0 | 0
21 | Nc1cccc(-c2cc3c(Oc4cccc(O)c4)ncnc3[nH]2)c1 (10 µM) | 1 | 2 | 2 | 0 | 3 | 0 | 1 | 0 | 0 | 1 | 2 | 0 | 0 | 3 | 2 | 0 | 3 | 4 | 0 | 0
22 | Cc1ccc(NC(=O)c2ccnc(C(F)(F)F)c2)cc1-c1cc(OCCO)nc(N2CCOCC2)c1 (10 µM) | 0 | 0 | 0 | 0 | 0 | 0 | 0 | 0 | 0 | 0 | 0 | 0 | 0 | 0 | 0 | 0 | 0 | 0 | 0 | 0
23 | COc1cc2ncnc(-n3nc(-c4ccccn4)nc3N)c2cc1OC (10 µM) | 0 | 0 | 0 | 0 | 0 | 0 | 0 | 0 | 0 | 0 | 0 | 0 | 0 | 0 | 0 | 0 | 0 | 0 | 0 | 0
24 | O=C(O)c1cc(=O)c2c(OCC(O)COc3cccc4oc(C(=O)O)cc(=O)c34)cccc2o1 [Cromolyn (sodium)] (10 µM) | 0 | 0 | 0 | 0 | 0 | 0 | 0 | 0 | 0 | 0 | 0 | 0 | 0 | 0 | 0 | 0 | 0 | 0 | 0 | 0

Five entries from above, set out differently.
Row,SMILES,number of time points (CSNK1A1),number of time points (CSNK1D),number of time points (DDR1),number of time points (DYRK1B),number of time points (DYRK2),number of time points (EGFR),number of time points (EGFR_G719S),number of time points (EGFR_G719S_T790M),number of time points (EGFR_L718V),number of time points (EGFR_L858R),number of time points (EGFR_L861Q),number of time points (EGFR_T790M),number of time points (EPHA2),number of time points (ERBB3),number of time points [1],number of time points (ERN1),number of time points (FGFR1),number of time points (FGFR2),number of time points (FGFR3),number of time points (FGR)
8,Cc1cnc(-c2ccc(-c3ccc(NC(=O)Nc4cccc(C(F)(F)F)c4)cc3F)c3c2C(=O)NC3)[nH]1 (10 µM),3,0,0,0,0,0,3,0,0,0,3,0,0,0,1,0,0,2,1,0
13,N#Cc1ccnc(Nc2cc(C3CCN(C4COC4)CC3)cc(N3CCC(F)(F)C3)n2)c1 (2.5 µM),0,0,0,0,0,0,0,0,0,0,0,0,0,0,0,0,0,0,0,0
14,C[C@H](NC(=O)[C@H]1NCC[C@@H]1O)c1ccc(-c2noc(CCC3CCCC3)n2)cc1 (10 µM),0,0,0,0,0,0,0,0,0,0,0,0,0,0,0,0,0,0,0,0
15,O=C1O[C@H]([C@@H](O)CO)C(O)=C1OP(=O)(O)O [2-Phospho-L-ascorbic acid (trisodium)] (10 µM),0,0,0,0,0,0,0,0,0,0,0,0,0,0,0,0,2,0,0,0
20,C=CC(=O)Nc1cccc(CNc2nc(Nc3ccc(N4CCN(C)CC4)cc3OC)ncc2Cl)c1 (10 µM),0,0,0,0,0,0,0,0,0,0,0,0,0,0,0,0,0,0,0,0
